Test results reported in PubChem BioAssay AID1347075 (National Center for Advancing Translational Sciences (NCATS), 2019).
In all, about 400,000 compounds went through this assay and about 5,500 (1.4%) were called active. Inconclusive means that the source gave no clear call. Such entries were picked first, then a sample of the others. The call rests on the fitted dose curve; in most records, active means well fitted cell-killing curve with a large enough effect; inconclusive means small, poorly fitted or top-dose-only effect, or effect the other way; inactive means flat fitted curve, though single readings scatter. Potencies of inconclusive entries are doubtful fits and often do not repeat.

assay: qHTS assay for MDR1-selective chemotherapeutics: Primary screen using the parental adenocarcinoma cell KB-3-1; details: KB-3-1 viability, CellTiter-Glo ATP luminescence, 72 h; activity change, negative = cytotoxic: at 46.1 µM (top of the series); further: nearly all actives have a fitted effect of over 60% in size
Procedure, shortened: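 Using CellTiter-Glo luminescence, growth of non-resistant KB-3-1 adenocarcinoma cells is assessed 72 h after pin-tool compound addition at 37 °C. Normalized responses across the concentration series yield fitted curves.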
On the % scale 0 is the no-effect control and ±100 the full control effect; potency means the concentration at half of the fitted maximal effect.

| Compound | Potency | activity change, negative = cytotoxic |
| --- | --- | --- |
| CCc1ccc(CN(Cc2cn[nH]c2-c2ccc(OC)cc2)C(=O)Nc2cc(Cl)ccc2OC)cc1 | inconclusive: 18.4 µM [cytotoxic, partial curve, poor fit] | – |
| FC(F)(F)c1nc(N2CCCC2)ncc1-c1nnnn1-c1ccc(Cl)cc1 | inconclusive: 16.4 µM [cytotoxic, partial curve] | – |
| CC(Sc1nnc(-c2ccc(OC(F)F)cc2)n1N)C(=O)NCC1CCCO1 (stereo not drawn) | inconclusive: 18.4 µM [rising, partial curve, poor fit] | – |
| Cc1cc(NCc2ccccc2)n2ncc(-c3ccccc3)c2n1 | inconclusive: 18.4 µM [cytotoxic, single point] | – |
| Cc1ccc(-n2ncc3c(NC4CCCCCC4)ncnc32)cc1Cl | – | inactive: -0.538% |
| CCCNC(=O)CN1C(=O)c2ccccc2Sc2ncccc21 | – | inactive: 17.5% |
| Cc1cc(N2CCCCCC2)n2nc(C)c(-c3ccccc3)c2n1 | inconclusive: 29.1 µM [cytotoxic, single point] | – |
| COc1ccc(CCN(C)C2CCCN(C(=O)Cn3cnnn3)C2)cc1OC (stereo not drawn) | – | inactive: -6.57% |
| CCN(CC)c1ccc(C(=C2C=CC(=[N+](CC)CC)C=C2)c2ccc(S(=O)(=O)O)cc2S(=O)(=O)[O-])cc1 | active: 11.6 µM | – |
| COc1ccccc1Nc1c2ccccc2nc2ccccc12 | inconclusive: 20.6 µM [cytotoxic, single point] | – |
| CC(C)(C)OC(=O)NCc1ccc(NC(=O)c2nc[nH]c2C(=O)N[C@@H](Cc2ccccc2)C(=O)OC(C)(C)C)cc1 | inconclusive: 29.1 µM [cytotoxic, single point] | – |
| CCCCN(CCCNC(=O)c1cc(Nc2ccc(OC)c(OC)c2)nc2ccccc12)Cc1ccccc1 | inconclusive: 9.2 µM [cytotoxic, partial curve] | – |
| COc1ccc(N(C(=O)C(C)C)S(=O)(=O)c2ccc(Cl)cc2)cc1 | – | inactive: 0.528% |
| O=C(Cc1ccc([N+](=O)[O-])cc1)NCc1ccccn1 | – | inconclusive: 14.5% |
| COc1cc(C2NC(=O)c3c(sc4c3CCN(C)C4)N2)cc(OC)c1OC (stereo not drawn) | inconclusive: 16.4 µM [rising, partial curve, poor fit] | – |
| COc1ccc(CC(=O)Nc2c(C(=O)N3CCN(c4ccccc4OC)CC3)oc3ccccc23)cc1OC | inconclusive: 29.1 µM [cytotoxic, single point] | – |
| COc1ccc(NC(=O)CSc2n[nH]c(=O)n2C2CC2)cc1OC | – | inactive: 9.21% |
| CN(C)CCCNC(=O)c1ccc(-c2nc(-c3ccc(Cl)cc3)cs2)cc1 | inconclusive: 29.1 µM [cytotoxic, single point] | – |

2 consecutive entries from above:

| Compound | Potency | activity change, negative = cytotoxic |
| --- | --- | --- |
| Cc1cc(NCc2ccccc2)n2ncc(-c3ccccc3)c2n1 | inconclusive: 18.4 µM [cytotoxic, single point] | – |
| Cc1ccc(-n2ncc3c(NC4CCCCCC4)ncnc32)cc1Cl | – | inactive: -0.538% |
